Reference: PubChem BioAssay AID1224827 (NIAID, 2016)
Shown is a random part of about 3,800 reagents tested. In the full data, about 2,200 (57%) are marked active. 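Active means a strong reporter change in either direction; calls are per siRNA, not per gene; qiagen siRNAs gave weaker effects.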 The numbers tell different reagents against one gene apart. No sequences are given here.

Assay: 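Confirm genes whose knock-down changes LPS-driven TNF promoter activity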 (follow-up of hits)
System: RAW264.7 G9 mouse macrophage reporter clone
Reagents: single siRNA against mouse genes, 100 nM siRNA
Time to read-out: siRNA for 2 days, then LPS about 16 h
Challenge: bacterial lipopolysaccharide (LPS), 10 ng/ml, cells fixed after overnight (about 16 h) stimulation
Measurement: 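Imaged nuclear TNF reporter intensity, background removed, scaled per plate and to non-targeting control wells, as z-scores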
Scale: TNF reporter z-score, mean and TNF reporter z-score: higher = stronger Tnf promoter reporter signal; gene median z, three same-vendor siRNAs: higher = stronger Tnf reporter signal for the gene
Active means: 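An siRNA is called active when its mean z-score over replicates is at least +2 or at most -2; control wells get no call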

| gene knocked down | reagent no. | TNF reporter z-score, mean | gene median z, three same-vendor siRNAs | TNF reporter z-score, repeat 1 | TNF reporter z-score, repeat 2 | Outcome |
| --- | --- | --- | --- | --- | --- | --- |
| Gxylt2 (glucoside xylosyltransferase 2) | 1 | 5.56 | -1.99 | 6.13 | 4.99 | active |
| Gxylt2 (glucoside xylosyltransferase 2) | 2 | -1.99 | -1.99 | -2.39 | -1.58 | inactive |
| Gxylt2 (glucoside xylosyltransferase 2) | 3 | -5.74 | -1.99 | -5.19 | -6.28 | active |
| Gxylt2 (glucoside xylosyltransferase 2) | 4 | 0.219 | -2.57 | 1.08 | -0.641 | inactive |
| Gxylt2 (glucoside xylosyltransferase 2) | 5 | -2.57 | -2.57 | -2.08 | -3.05 | active |
| Gxylt2 (glucoside xylosyltransferase 2) | 6 | -3.89 | -2.57 | -4.08 | -3.7 | active |
| 2900005J15Rik (RIKEN cDNA 2900005J15 gene) | 1 | 4.52 | 1.43 | 4.19 | 4.85 | active |
| 2900005J15Rik (RIKEN cDNA 2900005J15 gene) | 2 | 1.43 | 1.43 | 1.5 | 1.37 | inactive |
| 2900005J15Rik (RIKEN cDNA 2900005J15 gene) | 3 | -3.81 | 1.43 | -4.01 | -3.6 | active |
| 2900005J15Rik (RIKEN cDNA 2900005J15 gene) | 4 | 3.34 | 0.717 | 5.6 | 1.08 | active |
| 2900005J15Rik (RIKEN cDNA 2900005J15 gene) | 5 | 1.61 | 0.717 | 2.87 | 0.352 | inactive |
| 2900005J15Rik (RIKEN cDNA 2900005J15 gene) | 6 | -1.49 | 0.717 | -1.04 | -1.95 | inactive |
| Ulk4 (unc-51-like kinase 4) | 1 | -2.26 | -3.41 | -2.47 | -2.05 | active |
| Ulk4 (unc-51-like kinase 4) | 2 | -3.41 | -3.41 | -3.29 | -3.52 | active |
| Ulk4 (unc-51-like kinase 4) | 3 | -5.04 | -3.41 | -3.9 | -6.18 | active |
| Ulk4 (unc-51-like kinase 4) | 4 | 2.17 | 0.252 | 3.71 | 0.637 | active |
| Ulk4 (unc-51-like kinase 4) | 5 | 1.17 | 0.252 | 2.48 | -0.134 | inactive |
| Ulk4 (unc-51-like kinase 4) | 6 | -0.916 | 0.252 | -0.984 | -0.847 | inactive |
| Pabpn1 (poly(A) binding protein, nuclear 1) | 1 | -2.27 | -4.01 | -3.08 | -1.47 | active |
| Pabpn1 (poly(A) binding protein, nuclear 1) | 2 | -4.32 | -4.01 | -4.88 | -3.77 | active |
| Pabpn1 (poly(A) binding protein, nuclear 1) | 3 | -4.46 | -4.01 | -4.67 | -4.25 | active |
| Pabpn1 (poly(A) binding protein, nuclear 1) | 4 | -1.08 | -2.18 | 0.134 | -2.3 | inactive |
| Pabpn1 (poly(A) binding protein, nuclear 1) | 5 | -1.52 | -2.18 | -0.98 | -2.06 | inactive |
| Pabpn1 (poly(A) binding protein, nuclear 1) | 6 | -3.61 | -2.18 | -3.9 | -3.33 | active |
| Poglut3 (protein O-glucosyltransferase 3) | 1 | -1.73 | -2.61 | -2.92 | -0.528 | inactive |
| Poglut3 (protein O-glucosyltransferase 3) | 2 | -2.07 | -2.61 | -2.29 | -1.84 | active |
| Poglut3 (protein O-glucosyltransferase 3) | 3 | -4.54 | -2.61 | -4.61 | -4.47 | active |
| Poglut3 (protein O-glucosyltransferase 3) | 4 | 1.85 | 0.902 | 3.68 | 0.0122 | inactive |
| Poglut3 (protein O-glucosyltransferase 3) | 5 | 1.49 | 0.902 | 2.78 | 0.203 | inactive |
| Poglut3 (protein O-glucosyltransferase 3) | 6 | 0.891 | 0.902 | 1.6 | 0.182 | inactive |
| Irx3 (Iroquois related homeobox 3) | 1 | 0.102 | -2 | 0.156 | 0.0472 | inactive |
| Irx3 (Iroquois related homeobox 3) | 2 | -2.15 | -2 | -2.46 | -1.84 | active |
| Irx3 (Iroquois related homeobox 3) | 3 | -3.28 | -2 | -4.39 | -2.17 | active |
| Irx3 (Iroquois related homeobox 3) | 4 | 3.77 | 0.232 | 6.38 | 1.15 | active |
| Irx3 (Iroquois related homeobox 3) | 5 | 0.232 | 0.232 | -0.283 | 0.748 | inactive |
| Irx3 (Iroquois related homeobox 3) | 6 | -1.54 | 0.232 | -1.66 | -1.43 | inactive |
| Frey1 (Frey regulator of sperm-oocyte fusion 1) | 1 | -0.138 | -4.84 | -1.09 | 0.81 | inactive |
| Frey1 (Frey regulator of sperm-oocyte fusion 1) | 2 | -4.84 | -4.84 | -4.38 | -5.31 | active |
| Frey1 (Frey regulator of sperm-oocyte fusion 1) | 3 | -5.8 | -4.84 | -5.79 | -5.81 | active |
| Epo (erythropoietin) | 1 | 0.751 | -2.96 | -0.349 | 1.85 | inactive |
| Epo (erythropoietin) | 2 | -2.96 | -2.96 | -2.63 | -3.29 | active |
| Epo (erythropoietin) | 3 | -4.37 | -2.96 | -4.85 | -3.89 | active |
| Epo (erythropoietin) | 4 | 1.14 | -1.41 | 2.28 | -0.000609 | inactive |
| Epo (erythropoietin) | 5 | -1.58 | -1.41 | -1.41 | -1.74 | inactive |
| Epo (erythropoietin) | 6 | -1.79 | -1.41 | -2.17 | -1.41 | inactive |
| Csn1s2a (casein alpha s2-like A) | 1 | -3.73 | -4.23 | -4.05 | -3.41 | active |
| Csn1s2a (casein alpha s2-like A) | 2 | -4.23 | -4.23 | -4.41 | -4.04 | active |
| Csn1s2a (casein alpha s2-like A) | 3 | -4.45 | -4.23 | -4.42 | -4.48 | active |
| Csn1s2a (casein alpha s2-like A) | 4 | 3.44 | 1.3 | 7.29 | -0.41 | active |
| Csn1s2a (casein alpha s2-like A) | 5 | 1.3 | 1.3 | 2.59 | 0.00601 | inactive |
| Csn1s2a (casein alpha s2-like A) | 6 | 1.32 | 1.3 | 3.55 | -0.899 | inactive |
| Cd209c (CD209c antigen) | 1 | -2.26 | -3.99 | -0.965 | -3.56 | active |
| Cd209c (CD209c antigen) | 2 | -3.61 | -3.99 | -2.79 | -4.42 | active |
| Cd209c (CD209c antigen) | 3 | -4.77 | -3.99 | -4.65 | -4.88 | active |
| Cd209c (CD209c antigen) | 4 | 0.761 | 0.19 | 1.51 | 0.0117 | inactive |
| Cd209c (CD209c antigen) | 5 | 0.497 | 0.19 | 1.37 | -0.378 | inactive |
| Cd209c (CD209c antigen) | 6 | -0.442 | 0.19 | 0.368 | -1.25 | inactive |

Ordered by “TNF reporter z-score, mean” (lowest first): some entries from above.
| gene knocked down | reagent no. | TNF reporter z-score, mean | gene median z, three same-vendor siRNAs | TNF reporter z-score, repeat 1 | TNF reporter z-score, repeat 2 | Outcome |
| --- | --- | --- | --- | --- | --- | --- |
| Frey1 (Frey regulator of sperm-oocyte fusion 1) | 3 | -5.8 | -4.84 | -5.79 | -5.81 | active |
| Frey1 (Frey regulator of sperm-oocyte fusion 1) | 2 | -4.84 | -4.84 | -4.38 | -5.31 | active |
| Frey1 (Frey regulator of sperm-oocyte fusion 1) | 1 | -0.138 | -4.84 | -1.09 | 0.81 | inactive |
| Epo (erythropoietin) | 1 | 0.751 | -2.96 | -0.349 | 1.85 | inactive |
